# From PubChem BioAssay AID1508600 (Functional Genomics Laboratory (NCATS/FGL), 2020)
# The whole screen tested about 53,000 sequences, of which about 3,700 (7%) were called active.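 Rule for the calls: active = gene knockdowns whose robust z-score for IL-1 alpha signal is at least 2 or at most -2, so actives lie on both sides; inactive = the rest.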 Some of the results follow.
# Assay: Components of the Cytosolic LPS Sensing Pathway: Gene Identification via Genome-wide siRNA Screen;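 note: robust z of the log signal after scaling to non-targeting control siRNA wells of the plate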
# Conditions: RAW264.7 macrophages, IL-1a HTRF, actives lie on both sides, screened at 100 nM (by protocol), cells primed 5 h with Pam3CSK4 first
# Method in brief: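 RAW264.7 mouse macrophages reverse-transfected with single siRNAs (100 nM final) for 48h, primed with Pam3CSK4 for 5 hours, then transfected with LipidA for 24 hour. Supernatant IL-1a read by HTRF; values normalized to negative-control median, log-transformed robust z-scores.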
row,Sequence,z-score
1,GGCUCACAAAGAGGAAAACTT against Pcid2,inactive: -1.16
2,GAAGAGGGCACCUAGUUUCTT against Cox7b,inactive: 0.249
3,GGAAGUGACAUCACAGACGTT against 1810009N02Rik,inactive: -0.265
4,CCAUGAGCACCUACUAUGCTT against Tmem86b,inactive: -1.3
5,GCAAGCUAUCAGGUGCAGUTT against Rnpepl1,inactive: 0.809
6,GGUUGAGUAGUUGAUUUUCTT against Hemgn,inactive: 0.663
7,GCCUGAGUCAUCCUCCAAATT against Zfp446,inactive: -0.138
8,GGACAAAGAAAAUACGAAATT against Olfr593,inactive: -0.295
9,CCCUGCUAAAAUCGACCUGTT against Plekha8,inactive: -0.912
10,GGUUGUUCAUGAGCCGAACTT against Rpl18,inactive: -0.0641
11,GCAUCGCAUAUUGGAAUGCTT against Lim2,inactive: 0.366
12,GGGCCAUACCAUUUGGGUGTT against Wdr38,inactive: 0.142
13,GGAAUGUGCGGAAGACAUATT against Gfer,inactive: 0.468
14,GGGACAGUUUUCGGACUUCTT against S1pr4,inactive: -0.362
15,GGACCAUCCCUGCUUAAUGTT against Brat1,active: -2.09
16,GGGUUUAAUCAUGAUAGAATT against Tet2,inactive: -0.583
17,GGAAGACGAUGACCUAAACTT against C1s2,inactive: 0.00465
18,GGUUCAGAAAUUUGUCAACTT against Nhp2,inactive: 0.252
19,GCAACUGUGAACCAGUUGUTT against Pcif1,inactive: 0.528
20,GGAGGAGCAUCCUUCAACUTT against Fcrl1,inactive: -1.33
21,GGAUGAAGCCUUCAUCAGGTT against Adcy6,inactive: 0.0162
22,GCAUAUGGCUUAACACAAATT against Tbc1d15,inactive: 0.196

# Some of the entries above in a different format:
row	Sequence	z-score
3	GGAAGUGACAUCACAGACGTT against 1810009N02Rik	inactive: -0.265
4	CCAUGAGCACCUACUAUGCTT against Tmem86b	inactive: -1.3
5	GCAAGCUAUCAGGUGCAGUTT against Rnpepl1	inactive: 0.809
6	GGUUGAGUAGUUGAUUUUCTT against Hemgn	inactive: 0.663

# (next part)

row,Sequence,z-score
1,CCAAAUUAUCACCCUGUUCTT against Olfr763,inactive: -0.0232
2,CCUCUGACACCUUAGCGAATT against Ppp1r2-ps9,inactive: 1.43
3,GGAGGUAGGAAGGAAGAAGTT against Rrp8,inactive: 0.396
4,GGAAACCUUUCGUAUUUCATT against Cbll1,inactive: -0.0247
5,GGAUAUUCGUUACCAUUAUTT against Msantd2,inactive: -1.55
6,GGACCUAAGCAGAAAACUGTT against Meis3,inactive: 0.789
7,CGAUAAGAAUCUCUUCCGCTT against Camkv,inactive: 0.109
8,CCGUCUCUAUCUACCUAGGTT against Npas3,inactive: 0.0727
9,CGGCCGUCAGCUUCUUUUATT against Olfr283,inactive: -0.204
10,CCAUAAGUGAGCUUGAUGUTT against Sipa1l1,inactive: -0.704
11,CCGUAUUGUCCAUUGCCUCTT against Olfr577,inactive: -0.0317
12,GGUCAAGGUAGGCAAUGAATT against Stau2,active: -2.32
13,GGAAUCUGCUUGAAUAUGGTT against Tmem126a,inactive: -1.01
14,GGCAAGUGACAUUGUUCCUTT against Sohlh1,inactive: -1.3
15,GGAUUUGAAGAAAGAUGGATT against Ano5,inactive: 0.679
16,CCAUAUUAACUACAACACCTT against Lrrc4,inactive: 0.449
17,GGGCUACCUCAGUUUAAACTT against Spic,inactive: 0.763
18,GGAUGUGGACUCAAAGAAATT against Tmem38a,inactive: -0.683
19,GGUAGAUAUCAAUAAAGGATT against Olfr794,inactive: 0.939
20,GGUGGAUCACAGGUUCAUGTT against Rhd,inactive: -1.37
21,CGCGCUUCUACUUUUUUUATT against Nkx2-1,inactive: 0.406
22,GGUUUUCCUGCAUUUUUUATT against Rhou,inactive: 0.0175

row,Sequence,z-score
1,GGUGACCACAGACAACAAGTT against Glra4,inactive: -0.288
2,CCGUCAUCCGAGCAAUCAGTT against Kcnq5,inactive: -0.248
3,CGGCAUCUUUUUGAAUCAATT against Ccdc88c,inactive: 1.11
4,GGUACUGUGCCUAGCCUUATT against Adrb2,inactive: 0.525
5,GCCACUUCCGGCCUUUUUATT against Zfp422,inactive: -0.367
6,GGUUCUCUGAUACCCACUCTT against Mgat4e,inactive: 0.44
7,GCACCUAUACCGCCGUAUCTT against Agpat3,inactive: -0.176
8,GGGACUCUUGUUGGAUCCATT against Htr1d,inactive: -0.28
9,GUGGAAAAUUGAAGGGACGTT against Ndufb3,active: 3.69
10,GGAUGAAAUUGUGUUAUCUTT against Snrk,inactive: -0.371
11,GCUAUCCGGAAAGCGAUCATT against Anxa3,inactive: -1.41
12,CGCAUUCUAUUACUGUUACTT against Stxbp3,inactive: -1.02
13,GGACUAUGAACCUACCAAATT against Rala,inactive: 0.092
14,GGGAUCAAUGUCAUCCUUUTT against Nif3l1,inactive: -0.442
15,GGGUAUCAGUACCAAUGUUTT against Lrrc19,inactive: 0.78
16,GGUGGAACUUCUAUACAAATT against Thbs1,inactive: 1.25
17,GGUUCUGAAGAUGGAGGUUTT against Ttbk2,inactive: 1.22
18,GGAGUUUUCUUCAACUGGGTT against Atp6v0c,inactive: -1.06
19,GCGCACUGAGAUUGAAGAATT against Plcd4,inactive: 0.326
20,CCUAAGAUUUUGGAACAAATT against Cenpm,inactive: -0.47
21,GAAAGAUGGAGACACCCUCTT against Pigx,inactive: 0.193
22,GUCCCAAUGCUCAAAAAAATT against Sugp1,inactive: -0.271

row,Sequence,z-score
1,GGAGGGACCAGAAAUAAUUTT against Snx18,inactive: 1.18
2,GCCUGAAGAUGAUUCGAUUTT against Gbgt1,inactive: 0.572
3,GGAGGAAUCAAAGGCUCCUTT against Slc39a5,inactive: -0.319
4,GGAGCAGAAUGAGAAGACUTT against Marchf8,active: 2.16
5,GGAUGGGUCAACAUUCUACTT against V1rb5,inactive: -0.411
6,CCAUGUACCAGAUUAAGUATT against Krt8,inactive: 1.16
7,GCAGUGGACUUUUUCUUAGTT against Nptx1,inactive: 0.683
8,GGAGACCUCCUUUUCCAUUTT against Slc41a1,inactive: -0.603
9,CCAUCAUCGAUGUGCCCUATT against Olfr355,inactive: 1.89
10,GGAACUCCUGGAGCAGAACTT against Tbc1d10b,active: -2.52
11,GGUAUAGUGGAAGAAUACCTT against Bmpr1b,inactive: -0.955
12,GGUACUACGACCAUCUCCUTT against Tnfrsf13b,inactive: 1.11
13,GCACACAACUGGUAGUUUUTT against Chst1,inactive: -0.0596
14,UUCAUGUAGGGUGUCUCUUTT against Olfr180,inactive: 0.407
15,GCAAAAACCUAUAGGAAAATT against Srpk2,active: 2.27
16,GGAAUGAGAAGGAAAAGGUTT against Arpc4,inactive: 1.67
17,GCUCUGUGCACUUAAGAGATT against Mbd3l2,inactive: 0.246
18,CCCUCCACAGAUGAACACCTT against Lgals4,active: -2.02
19,GGAGAAUCCUUCCUUGUUUTT against Il2rg,inactive: 1.41
20,GCAGCUACUGUGUUACAAATT against Afap1l1,inactive: 1.17
21,CCUAGAGGAAGACUUAUGUTT against Fhl2,inactive: 0.637
22,GGGUCAAUGGUAUUCCCAGTT against 4932411K12,inactive: 0.394

row,Sequence,z-score
1,GGAUCACUCCAGGAAGCAATT against Pdlim3,inactive: 0.14
2,GGAUGGCUCUAUGCCAAGATT against Mrps27,inactive: 0.992
3,CGGGACAUUCGUGAUCUUATT against Tmem114,active: -2.38
4,GGUUCUCAUACAUAAACAATT against Mri1,active: -2.87
5,GGACACCAACUUUCUGCCCTT against Ccn5,inactive: -0.0244
6,GGAAAUUGCUAUUGCUUCATT against Olfr837,inactive: -0.876
7,GGCCGUGAUCUUGGAAUAUTT against Pop4,inactive: -0.296
8,GGACAAAGAGUGAAGCCAGTT against Reg4,inactive: -1.52
9,GGAUCUCGAAGUUACUGCATT against Dnajc5b,inactive: 1.77
10,AGACCUUGAGAACAUUCUUTT against Nkx2-6,inactive: 0.925
11,GGUGGUUACCAUCUUACUUTT against Trhr,inactive: 0.532
12,CCAGUAGUAUUUAUUGCUUTT against Tcf7l2,inactive: 0.278
13,UGCGAGCUCACUGAUGUACTT against Adam34l,inactive: -1.69
14,GGUCUUUGCUACCAACCUGTT against Fignl1,active: -2.15
15,GAUGGUCAUUGAUGUCCUUTT against Rps24,inactive: -0.694
16,GGGAAACACAGAUUUCUUUTT against Cadm4,inactive: -1.07
17,GGAGAGAUUUUUCUAUCAUTT against Rab11fip3,inactive: -0.361
18,GCUCAGGAAUUUGACACCATT against Adgrl3,inactive: -1.33
19,GGUGAUGGUGUAUGUUGCUTT against Olfr309,inactive: -1.08
